{"sequences": {"note": "Sequences of proteins named here, by UniProt entry; tags and fusion partners are left off. A change or cut given only in a name is not applied to a line headed by its entry.", "UniProt P49840": "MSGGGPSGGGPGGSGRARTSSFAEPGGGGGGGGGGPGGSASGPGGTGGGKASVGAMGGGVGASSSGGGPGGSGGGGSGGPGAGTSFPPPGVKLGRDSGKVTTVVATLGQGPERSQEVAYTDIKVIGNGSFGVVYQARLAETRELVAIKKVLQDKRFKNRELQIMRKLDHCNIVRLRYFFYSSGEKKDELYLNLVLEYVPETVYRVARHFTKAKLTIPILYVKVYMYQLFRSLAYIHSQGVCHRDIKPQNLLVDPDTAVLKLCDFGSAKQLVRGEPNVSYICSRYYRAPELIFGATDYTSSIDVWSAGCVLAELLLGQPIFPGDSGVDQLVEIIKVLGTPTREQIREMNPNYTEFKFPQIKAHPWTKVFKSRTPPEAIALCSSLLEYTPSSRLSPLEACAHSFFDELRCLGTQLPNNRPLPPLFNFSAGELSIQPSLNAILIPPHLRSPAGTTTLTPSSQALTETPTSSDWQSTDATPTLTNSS"}, "source": "PubChem BioAssay AID588361", "about": "(Broad Institute, 2011)", "biological_target": "Glycogen synthase kinase-3 alpha (Homo sapiens) (UniProt P49840)", "assay": "Human GSK-3 alpha enzyme inhibition, dry-powder retest concentration series on a Caliper reader (AID 588361)", "conditions": "GST-GSK3a, peptide conversion microfluidic mobility shift, 60 min; at 35 µM (top of the series)", "note": "The list shows a part of the results. Potency and affinity values are given separately. The source made no clear call on entries shown without one."}
{"molecule": "Cc1ccc(-n2c(C)c([N+](=O)[O-])c3ccc(O)cc32)cc1", "values": [{"measurement": "activity change, negative = inhibition", "result": -50.1, "unit": "%"}]}
